Results are given in words; binding and its absence hold for the method and conditions named. In cells and extracts the contact can be indirect. Some entries that bind do so weakly or less than the wild type. Values belong to the binder of their own block, whether it stands above or below them.
Key:
[1] = target: T1, adipocyte plasma membrane-associated protein (APMAP) (human (endogenous in KYSE150 and TE1)) (UniProt Q9HDC9); assay: co-IP; endogenous proteins in NP-40 lysates of KYSE150 and TE1 cells treated with DMSO or 100 nM Tg; lysate with the indicated antibody (anti-CRELD2, anti-TGFBR1 or anti-APMAP) 3 h at 4°C, protein A/G agarose beads overnight at 4°C, three washes with NP-40 buffer, immunoblot; normal rabbit IgG as negative control
T1 sequence: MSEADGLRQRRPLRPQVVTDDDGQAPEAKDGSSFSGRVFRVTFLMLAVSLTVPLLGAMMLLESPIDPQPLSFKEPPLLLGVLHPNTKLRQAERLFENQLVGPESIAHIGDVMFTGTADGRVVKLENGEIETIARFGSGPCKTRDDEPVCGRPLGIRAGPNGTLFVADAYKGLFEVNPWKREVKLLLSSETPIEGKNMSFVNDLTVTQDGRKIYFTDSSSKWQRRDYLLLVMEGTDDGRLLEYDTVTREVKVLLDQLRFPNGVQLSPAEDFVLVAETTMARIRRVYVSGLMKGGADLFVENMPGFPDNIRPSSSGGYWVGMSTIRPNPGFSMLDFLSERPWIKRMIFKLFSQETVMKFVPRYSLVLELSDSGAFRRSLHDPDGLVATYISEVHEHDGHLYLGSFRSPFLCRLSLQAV

[2] = target: T2, cysteine-rich with EGF-like domains 2 (CRELD2) (human (endogenous in KYSE150 and TE1)) (UniProt Q6UXH1); assay: as above
T2 sequence: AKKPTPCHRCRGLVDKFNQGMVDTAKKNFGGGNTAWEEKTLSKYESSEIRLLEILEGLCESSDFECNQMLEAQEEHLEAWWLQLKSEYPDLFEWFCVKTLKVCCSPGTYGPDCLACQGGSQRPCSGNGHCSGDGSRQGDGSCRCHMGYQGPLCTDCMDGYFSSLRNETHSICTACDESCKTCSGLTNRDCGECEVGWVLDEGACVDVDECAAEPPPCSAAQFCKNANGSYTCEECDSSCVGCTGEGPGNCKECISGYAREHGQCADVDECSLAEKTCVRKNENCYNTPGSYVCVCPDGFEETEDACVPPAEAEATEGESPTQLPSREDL

[3] = target: T3, TAK1 (human (endogenous in KYSE150 and TE1)) (UniProt O43318); assay: co-IP; lysates of cells transfected with the APMAP overexpression plasmid (pcDNA3.1-APMAP) or control; IP with anti-TGFBR1 or anti-APMAP, immunoblot with anti-TAK1, anti-TGFBR1 or anti-APMAP
T3 sequence: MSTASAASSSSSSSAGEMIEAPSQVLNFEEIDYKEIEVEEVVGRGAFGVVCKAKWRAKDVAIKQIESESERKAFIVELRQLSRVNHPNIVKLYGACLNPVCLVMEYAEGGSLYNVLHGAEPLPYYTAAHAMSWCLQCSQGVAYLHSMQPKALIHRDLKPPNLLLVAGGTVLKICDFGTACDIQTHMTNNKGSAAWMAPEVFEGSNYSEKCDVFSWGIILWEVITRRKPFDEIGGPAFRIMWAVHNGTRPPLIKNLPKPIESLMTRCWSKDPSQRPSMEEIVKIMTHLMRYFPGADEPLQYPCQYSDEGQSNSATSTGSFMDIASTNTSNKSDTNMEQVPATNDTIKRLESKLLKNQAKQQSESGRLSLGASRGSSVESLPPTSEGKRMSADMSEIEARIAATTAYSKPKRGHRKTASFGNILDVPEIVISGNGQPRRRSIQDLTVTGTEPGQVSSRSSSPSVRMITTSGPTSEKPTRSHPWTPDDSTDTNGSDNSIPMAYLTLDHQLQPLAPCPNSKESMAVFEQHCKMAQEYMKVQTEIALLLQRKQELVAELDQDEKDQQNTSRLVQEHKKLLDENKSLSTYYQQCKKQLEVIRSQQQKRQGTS

[4] = target: T4, transforming growth factor beta receptor I (TGFBR1) (human (endogenous in KYSE150 and TE1)) (UniProt P36897); assay: co-IP; endogenous proteins in NP-40 lysates of KYSE150 and TE1 cells treated with DMSO or 100 nM Tg; lysate with the indicated antibody (anti-CRELD2, anti-TGFBR1 or anti-APMAP) 3 h at 4°C, protein A/G agarose beads overnight at 4°C, three washes with NP-40 buffer, immunoblot; normal rabbit IgG as negative control
T4 sequence: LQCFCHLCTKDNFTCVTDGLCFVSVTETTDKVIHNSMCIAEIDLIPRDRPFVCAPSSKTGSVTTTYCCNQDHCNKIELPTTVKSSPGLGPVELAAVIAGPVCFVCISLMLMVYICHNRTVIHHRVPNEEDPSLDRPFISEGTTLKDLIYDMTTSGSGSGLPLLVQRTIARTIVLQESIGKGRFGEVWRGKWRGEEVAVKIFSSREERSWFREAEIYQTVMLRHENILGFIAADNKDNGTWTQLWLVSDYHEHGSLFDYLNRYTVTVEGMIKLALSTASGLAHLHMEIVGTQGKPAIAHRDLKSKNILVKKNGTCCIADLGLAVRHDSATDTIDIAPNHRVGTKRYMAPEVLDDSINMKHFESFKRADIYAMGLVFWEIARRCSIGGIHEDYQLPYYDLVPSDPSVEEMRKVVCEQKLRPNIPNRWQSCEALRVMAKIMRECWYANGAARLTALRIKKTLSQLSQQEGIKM

[5] = target: T4, transforming growth factor beta receptor I (TGFBR1) (human (endogenous in KYSE150 and TE1)); assay: co-IP; lysates of cells transfected with the APMAP overexpression plasmid (pcDNA3.1-APMAP) or control; IP with anti-TGFBR1 or anti-APMAP, immunoblot with anti-TAK1, anti-TGFBR1 or anti-APMAP

binding [1]: binds
B1: TAK1-binding protein 2 (TAB2) (protein, UniProt Q9NYJ8 1-693)
chain: MAQGSHQIDFQVLHDLRQKFPEVPEVVVSRCMLQNNNNLDACCAVLSQESTRYLYGEGDLNFSDDSGISGLRNHMTSLNLDLQSQNIYHHGREGSRMNGSRTLTHSISDGQLQGGQSNSELFQQEPQTAPAQVPQGFNVFGMSSSSGASNSAPHLGFHLGSKGTSSLSQQTPRFNPIMVTLAPNIQTGRNTPTSLHIHGVPPPVLNSPQGNSIYIRPYITTPGGTTRQTQQHSGWVSQFNPMNPQQVYQPSQPGPWTTCPASNPLSHTSSQQPNQQGHQTSHVYMPISSPTTSQPPTIHSSGSSQSSAHSQYNIQNISTGPRKNQIEIKLEPPQRNNSSKLRSSGPRTSSTSSSVNSQTLNRNQPTVYIAASPPNTDELMSRSQPKVYISANAATGDEQVMRNQPTLFISTNSGASAASRNMSGQVSMGPAFIHHHPPKSRAIGNNSATSPRVVVTQPNTKYTFKITVSPNKPPAVSPGVVSPTFELTNLLNHPDHYVETENIQHLTDPTLAHVDRISETRKLSMGSDDAAYTQALLVHQKARMERLQRELEIQKKKLDKLKSEVNEMENNLTRRRLKRSNSISQIPSLEEMQQLRSCNRQLQIDIDCLTKEIDLFQARGPHFNPSAIHNFYDNIGFVGPVPPKPKDQRSIIKTPKTQDTEDDEGAQWNCTACTFLNHPALIRCEQCEMPRHF

binding [2]: binds
B2: adipocyte plasma membrane-associated protein (APMAP) (protein, UniProt Q9HDC9 1-416)
chain: T1 sequence

binding [3]: binds
B3: APMAP overexpressed from pcDNA3.1-APMAP (protein, UniProt Q9HDC9 1-416)
chain: T1 sequence

binding [1]: binds
binding [4]: binds
binding [5]: binds
B4: TAK1 (enzyme, UniProt O43318 1-606)
chain: T3 sequence

binding [1]: binds
B5: TAK1-binding protein 1 (TAB1) (protein, UniProt Q15750 1-504)
chain: MAAQRRSLLQSEQQPSWTDDLPLCHLSGVGSASNRSYSADGKGTESHPPEDSWLKFRSENNCFLYGVFNGYDGNRVTNFVAQRLSAELLLGQLNAEHAEADVRRVLLQAFDVVERSFLESIDDALAEKASLQSQLPEGVPQHQLPPQYQKILERLKTLEREISGGAMAVVAVLLNNKLYVANVGTNRALLCKSTVDGLQVTQLNVDHTTENEDELFRLSQLGLDAGKIKQVGIICGQESTRRIGDYKVKYGYTDIDLLSAAKSKPIIAEPEIHGAQPLDGVTGFLVLMSEGLYKALEAAHGPGQANQEIAAMIDTEFAKQTSLDAVAQAVVDRVKRIHSDTFASGGERARFCPRHEDMTLLVRNFGYPLGEMSQPTPSPAPAAGGRVYPVSVPYSSAQSTSKTSVTLSLVMPSQGQMVNGAHSASTLDEATPTLTNQSPTLTLQSTNTHTQSSSSSSDGGLFRSRPAHSLPPGEDGRVEPYVDFAEFYRLWSVDHGEQSVVTAP

Source: article PMC12351132
